This is one part of the list.
Key:
Test in all cases: log2 fold change, soluble protein after heating vs DMSO (PISA); higher = thermal stabilisation; K562 lysate, 10 uM; active = over 0.2 and 3.5 SD of the protein, either way, in both replicates (recomputed)
lapatinib = compound: CS(=O)(=O)CCNCc1ccc(-c2ccc3ncnc(Nc4ccc(OCc5cccc(F)c5)c(Cl)c4)c3c2)o1 [lapatinib]
How it was run: (§1)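 Values give the log-two fold change in thermal stability against solvent controls, from duplicates. Crude K562 extract at 1 mg/mL protein, made by dounce homogenisation in PBS pH 7.4 with 1 mM MgCl2, was treated with 10 μM compound for 30 min. After 3 min heating across 48°C-58°C, aliquots were pooled, adjusted to 0.5% NP-40 at 4°C and centrifuged at 21,000xg for 90 min. The supernatant was measured by TMTpro 16plex LC-MS/MS with channel sums equalised.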

The chains behind the UniProt entries cited, without tags or fusion partners. Where a name states a change or a piece, a line headed by the entry shows the natural chain unless it says otherwise.
UniProt Q9Y6B7: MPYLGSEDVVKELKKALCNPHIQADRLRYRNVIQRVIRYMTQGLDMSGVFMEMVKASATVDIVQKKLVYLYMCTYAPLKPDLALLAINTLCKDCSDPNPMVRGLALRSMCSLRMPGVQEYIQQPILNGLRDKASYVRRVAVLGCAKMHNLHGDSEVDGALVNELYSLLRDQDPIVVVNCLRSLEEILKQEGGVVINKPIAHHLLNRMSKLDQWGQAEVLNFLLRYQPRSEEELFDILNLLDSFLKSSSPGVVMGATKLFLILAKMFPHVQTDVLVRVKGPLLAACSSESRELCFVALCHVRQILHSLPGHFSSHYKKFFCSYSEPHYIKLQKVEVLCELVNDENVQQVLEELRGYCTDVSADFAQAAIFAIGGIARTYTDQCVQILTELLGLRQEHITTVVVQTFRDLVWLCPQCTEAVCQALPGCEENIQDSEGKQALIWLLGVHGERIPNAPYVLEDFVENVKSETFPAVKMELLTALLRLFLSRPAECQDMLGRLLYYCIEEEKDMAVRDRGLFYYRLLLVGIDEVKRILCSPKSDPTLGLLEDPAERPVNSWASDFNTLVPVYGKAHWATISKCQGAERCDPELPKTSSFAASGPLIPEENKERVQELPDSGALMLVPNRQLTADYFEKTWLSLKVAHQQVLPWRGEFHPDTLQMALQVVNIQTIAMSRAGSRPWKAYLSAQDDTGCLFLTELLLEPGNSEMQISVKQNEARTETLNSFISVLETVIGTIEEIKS
UniProt Q9NXR5: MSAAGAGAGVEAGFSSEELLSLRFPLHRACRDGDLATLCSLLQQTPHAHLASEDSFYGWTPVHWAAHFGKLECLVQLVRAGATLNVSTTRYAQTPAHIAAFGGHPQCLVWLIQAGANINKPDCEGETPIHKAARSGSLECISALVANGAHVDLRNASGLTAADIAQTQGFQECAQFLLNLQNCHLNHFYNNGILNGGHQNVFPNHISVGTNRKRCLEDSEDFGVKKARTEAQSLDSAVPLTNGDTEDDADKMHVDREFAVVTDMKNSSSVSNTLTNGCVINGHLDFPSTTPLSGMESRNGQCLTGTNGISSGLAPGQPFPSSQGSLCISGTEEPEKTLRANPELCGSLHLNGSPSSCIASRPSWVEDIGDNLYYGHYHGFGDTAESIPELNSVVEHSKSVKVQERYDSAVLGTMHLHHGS
UniProt Q9H1A4, whole entry, looked up: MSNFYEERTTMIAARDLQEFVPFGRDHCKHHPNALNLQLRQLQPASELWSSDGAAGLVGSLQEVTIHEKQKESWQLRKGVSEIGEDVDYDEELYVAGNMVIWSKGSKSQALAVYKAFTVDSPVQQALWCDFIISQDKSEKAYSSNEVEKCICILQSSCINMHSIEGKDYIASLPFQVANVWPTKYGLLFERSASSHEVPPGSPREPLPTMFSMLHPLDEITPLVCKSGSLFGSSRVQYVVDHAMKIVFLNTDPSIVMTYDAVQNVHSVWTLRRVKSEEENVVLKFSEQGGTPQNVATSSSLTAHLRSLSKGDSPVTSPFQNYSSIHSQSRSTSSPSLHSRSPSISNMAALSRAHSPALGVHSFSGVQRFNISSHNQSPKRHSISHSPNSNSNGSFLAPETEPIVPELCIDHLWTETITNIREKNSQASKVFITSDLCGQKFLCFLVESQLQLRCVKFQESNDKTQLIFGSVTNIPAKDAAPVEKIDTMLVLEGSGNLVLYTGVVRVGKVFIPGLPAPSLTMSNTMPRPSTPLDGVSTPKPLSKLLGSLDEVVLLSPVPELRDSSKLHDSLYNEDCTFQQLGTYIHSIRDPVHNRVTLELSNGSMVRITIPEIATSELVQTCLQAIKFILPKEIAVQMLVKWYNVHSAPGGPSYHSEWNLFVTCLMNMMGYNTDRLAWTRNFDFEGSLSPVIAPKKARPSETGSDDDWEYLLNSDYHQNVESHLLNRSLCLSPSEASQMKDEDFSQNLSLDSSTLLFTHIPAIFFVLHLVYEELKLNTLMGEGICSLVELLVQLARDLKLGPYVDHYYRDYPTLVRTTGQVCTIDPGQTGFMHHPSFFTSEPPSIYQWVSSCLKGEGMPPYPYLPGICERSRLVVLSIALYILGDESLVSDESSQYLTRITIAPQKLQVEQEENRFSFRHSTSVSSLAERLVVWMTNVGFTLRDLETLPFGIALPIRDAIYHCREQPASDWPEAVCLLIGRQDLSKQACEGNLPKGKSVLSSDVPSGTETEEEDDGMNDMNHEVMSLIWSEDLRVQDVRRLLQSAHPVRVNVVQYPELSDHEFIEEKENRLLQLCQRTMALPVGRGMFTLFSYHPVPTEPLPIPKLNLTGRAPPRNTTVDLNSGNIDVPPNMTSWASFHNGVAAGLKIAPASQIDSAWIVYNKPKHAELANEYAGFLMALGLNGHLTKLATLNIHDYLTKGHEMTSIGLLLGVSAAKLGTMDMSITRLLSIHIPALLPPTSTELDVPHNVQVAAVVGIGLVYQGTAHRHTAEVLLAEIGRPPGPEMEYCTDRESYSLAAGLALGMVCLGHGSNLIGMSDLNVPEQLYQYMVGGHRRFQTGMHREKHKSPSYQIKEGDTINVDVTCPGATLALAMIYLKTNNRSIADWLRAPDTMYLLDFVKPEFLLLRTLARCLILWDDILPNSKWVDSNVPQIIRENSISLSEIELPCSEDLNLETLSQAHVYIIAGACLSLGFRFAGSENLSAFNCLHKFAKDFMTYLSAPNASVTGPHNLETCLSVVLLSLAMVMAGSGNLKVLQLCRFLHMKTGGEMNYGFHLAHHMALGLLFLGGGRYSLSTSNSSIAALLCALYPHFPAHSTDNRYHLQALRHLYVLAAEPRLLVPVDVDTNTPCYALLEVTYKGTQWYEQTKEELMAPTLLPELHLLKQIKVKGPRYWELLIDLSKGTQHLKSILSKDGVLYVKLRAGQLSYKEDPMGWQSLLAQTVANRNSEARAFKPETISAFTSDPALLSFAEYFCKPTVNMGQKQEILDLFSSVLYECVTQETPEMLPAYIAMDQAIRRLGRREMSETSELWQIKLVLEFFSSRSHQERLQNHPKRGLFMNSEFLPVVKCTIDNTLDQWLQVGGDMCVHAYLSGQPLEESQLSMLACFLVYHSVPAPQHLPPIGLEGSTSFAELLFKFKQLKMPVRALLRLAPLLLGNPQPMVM
UniProt P49189: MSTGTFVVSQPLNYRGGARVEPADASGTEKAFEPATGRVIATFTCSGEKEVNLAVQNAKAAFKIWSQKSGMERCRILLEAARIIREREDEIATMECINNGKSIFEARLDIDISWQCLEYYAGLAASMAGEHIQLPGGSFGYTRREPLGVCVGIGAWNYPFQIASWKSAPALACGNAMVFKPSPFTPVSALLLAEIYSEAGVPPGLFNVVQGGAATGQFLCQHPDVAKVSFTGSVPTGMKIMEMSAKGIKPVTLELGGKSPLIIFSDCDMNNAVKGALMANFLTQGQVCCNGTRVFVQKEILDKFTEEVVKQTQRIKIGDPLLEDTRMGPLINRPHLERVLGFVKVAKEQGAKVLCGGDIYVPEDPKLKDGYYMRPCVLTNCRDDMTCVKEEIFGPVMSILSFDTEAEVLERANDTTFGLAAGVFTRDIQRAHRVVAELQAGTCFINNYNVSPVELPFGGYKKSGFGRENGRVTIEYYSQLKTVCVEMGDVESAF
UniProt P15144: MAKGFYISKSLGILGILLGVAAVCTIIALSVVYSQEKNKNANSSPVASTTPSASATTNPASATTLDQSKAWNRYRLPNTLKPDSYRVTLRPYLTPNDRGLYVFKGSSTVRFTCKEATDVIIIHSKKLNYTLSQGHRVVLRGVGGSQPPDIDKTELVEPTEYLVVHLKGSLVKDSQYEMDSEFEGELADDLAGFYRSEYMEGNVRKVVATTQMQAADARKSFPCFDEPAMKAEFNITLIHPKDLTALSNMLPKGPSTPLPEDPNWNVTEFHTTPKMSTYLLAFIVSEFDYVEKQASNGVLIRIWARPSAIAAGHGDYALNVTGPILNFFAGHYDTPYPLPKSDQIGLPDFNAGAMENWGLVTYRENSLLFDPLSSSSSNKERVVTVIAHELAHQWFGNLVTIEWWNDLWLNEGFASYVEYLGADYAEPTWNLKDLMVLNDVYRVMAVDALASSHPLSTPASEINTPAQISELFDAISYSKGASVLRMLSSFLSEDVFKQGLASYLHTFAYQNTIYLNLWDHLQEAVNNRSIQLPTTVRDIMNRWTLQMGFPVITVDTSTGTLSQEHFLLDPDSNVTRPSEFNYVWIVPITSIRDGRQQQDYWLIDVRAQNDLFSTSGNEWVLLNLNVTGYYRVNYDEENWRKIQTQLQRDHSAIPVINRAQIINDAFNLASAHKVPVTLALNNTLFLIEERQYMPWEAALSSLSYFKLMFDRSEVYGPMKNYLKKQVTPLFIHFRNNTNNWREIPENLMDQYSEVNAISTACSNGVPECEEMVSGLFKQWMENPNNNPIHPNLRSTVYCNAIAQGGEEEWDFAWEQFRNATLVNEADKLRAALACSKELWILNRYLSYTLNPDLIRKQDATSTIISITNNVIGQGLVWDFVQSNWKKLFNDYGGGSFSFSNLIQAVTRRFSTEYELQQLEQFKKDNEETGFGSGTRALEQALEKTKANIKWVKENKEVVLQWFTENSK
UniProt Q96BT7: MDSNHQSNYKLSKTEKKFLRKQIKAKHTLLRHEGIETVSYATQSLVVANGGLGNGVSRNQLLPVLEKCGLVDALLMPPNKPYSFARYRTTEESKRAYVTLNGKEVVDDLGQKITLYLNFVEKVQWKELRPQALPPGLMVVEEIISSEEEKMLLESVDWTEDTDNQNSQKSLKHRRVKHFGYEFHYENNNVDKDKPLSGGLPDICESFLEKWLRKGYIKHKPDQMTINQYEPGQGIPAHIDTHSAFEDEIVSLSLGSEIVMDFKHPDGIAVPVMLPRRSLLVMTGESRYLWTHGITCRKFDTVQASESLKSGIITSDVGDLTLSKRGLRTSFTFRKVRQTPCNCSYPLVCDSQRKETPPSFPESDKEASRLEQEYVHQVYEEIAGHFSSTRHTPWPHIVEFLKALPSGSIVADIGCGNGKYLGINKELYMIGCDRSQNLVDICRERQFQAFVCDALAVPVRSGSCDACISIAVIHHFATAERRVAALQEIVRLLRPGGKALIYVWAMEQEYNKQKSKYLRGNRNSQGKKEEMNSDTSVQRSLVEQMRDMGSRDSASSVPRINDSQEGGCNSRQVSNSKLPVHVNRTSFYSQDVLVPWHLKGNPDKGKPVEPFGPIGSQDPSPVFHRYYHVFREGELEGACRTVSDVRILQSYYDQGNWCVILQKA
UniProt P04083: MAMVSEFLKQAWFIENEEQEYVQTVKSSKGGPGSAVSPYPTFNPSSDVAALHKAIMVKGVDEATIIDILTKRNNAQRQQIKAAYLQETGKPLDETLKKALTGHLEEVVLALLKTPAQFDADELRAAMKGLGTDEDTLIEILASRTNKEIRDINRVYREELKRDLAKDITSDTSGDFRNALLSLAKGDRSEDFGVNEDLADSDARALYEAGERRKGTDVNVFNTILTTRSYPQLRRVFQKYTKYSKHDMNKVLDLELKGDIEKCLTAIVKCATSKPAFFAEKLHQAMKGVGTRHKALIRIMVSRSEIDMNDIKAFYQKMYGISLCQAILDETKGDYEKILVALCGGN
UniProt Q96Q83: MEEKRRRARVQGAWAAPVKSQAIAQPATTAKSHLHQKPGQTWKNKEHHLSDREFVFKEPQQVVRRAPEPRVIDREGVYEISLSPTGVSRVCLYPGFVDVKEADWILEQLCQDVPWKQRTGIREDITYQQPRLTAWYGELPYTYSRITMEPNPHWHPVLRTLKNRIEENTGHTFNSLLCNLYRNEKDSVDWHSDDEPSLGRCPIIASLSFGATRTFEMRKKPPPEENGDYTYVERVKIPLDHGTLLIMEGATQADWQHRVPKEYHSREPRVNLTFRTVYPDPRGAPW
UniProt P50995, whole entry, looked up: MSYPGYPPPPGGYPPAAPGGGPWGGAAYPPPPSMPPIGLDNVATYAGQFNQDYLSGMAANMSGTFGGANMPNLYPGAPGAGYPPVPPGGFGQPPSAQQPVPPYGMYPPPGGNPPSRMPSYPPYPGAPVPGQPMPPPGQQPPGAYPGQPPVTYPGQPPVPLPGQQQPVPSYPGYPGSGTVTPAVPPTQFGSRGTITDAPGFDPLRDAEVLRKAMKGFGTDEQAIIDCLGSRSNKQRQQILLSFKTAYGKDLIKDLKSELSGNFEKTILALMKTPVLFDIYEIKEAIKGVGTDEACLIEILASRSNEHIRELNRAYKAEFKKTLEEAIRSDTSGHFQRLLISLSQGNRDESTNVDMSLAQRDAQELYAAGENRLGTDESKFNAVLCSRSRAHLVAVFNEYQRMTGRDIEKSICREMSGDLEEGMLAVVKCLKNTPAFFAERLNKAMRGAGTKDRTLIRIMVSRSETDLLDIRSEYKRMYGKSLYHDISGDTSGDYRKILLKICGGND

pictilisib = compound: CS(=O)(=O)N1CCN(Cc2cc3nc(-c4cccc5[nH]ncc45)nc(N4CCOCC4)c3s2)CC1 [pictilisib]
How it was run: as §1

crizotinib = compound: C[C@@H](Oc1cc(-c2cnn(C3CCNCC3)c2)cnc1N)c1c(Cl)ccc(F)c1Cl [crizotinib]
How it was run: as §1

[1] = compound: C[C@H](C1=CC=C(C=C1)C(=O)NC2=C3C=CNC3=NC=C2)N
How it was run: as §1

duvelisib = compound: C[C@H](Nc1ncnc2nc[nH]c12)c1cc2cccc(Cl)c2c(=O)n1-c1ccccc1 [duvelisib]
How it was run: as §1

gandotinib = compound: Cc1cc(Nc2cc(CN3CCOCC3)c3nc(C)c(Cc4ccc(Cl)cc4F)n3n2)n[nH]1 [gandotinib]
How it was run: as §1

doramapimod = compound: Cc1ccc(-n2nc(C(C)(C)C)cc2NC(=O)Nc2ccc(OCCN3CCOCC3)c3ccccc23)cc1 [doramapimod]
How it was run: as §1

bafetinib = compound: Cc1ccc(NC(=O)c2ccc(CN3CC[C@H](N(C)C)C3)c(C(F)(F)F)c2)cc1Nc1nccc(-c2cncnc2)n1 [bafetinib]
How it was run: as §1

[2] = compound: Cc1cccc(CC(=O)N2CCc3c2ccc(-c2cn(C)c4ncnc(N)c24)c3F)n1
How it was run: as §1

nilotinib = compound: Cc1cn(-c2cc(NC(=O)c3ccc(C)c(Nc4nccc(-c5cccnc5)n4)c3)cc(C(F)(F)F)c2)cn1 [nilotinib]
How it was run: as §1

[3] = compound: Cc1nc(Nc2n[nH]c3c2CN(C(=O)N[C@H](CN(C)C)c2ccccc2)C3(C)C)c2sccc2n1
How it was run: as §1

dasatinib = compound: Cc1nc(Nc2ncc(C(=O)Nc3c(C)cccc3Cl)s2)cc(N2CCN(CCO)CC2)n1 [dasatinib]
How it was run: as §1

[4] = compound: Cc1ncc(-c2ccnc(Nc3ccc(S(C)(=O)=O)cc3)n2)n1C(C)C
How it was run: as §1

[5] = compound: Cn1cc(-c2ccc3c(c2)CCN3C(=O)Cc2cccc(C(F)(F)F)c2)c2c(N)ncnc21
How it was run: as §1

quisinostat = compound: Cn1cc(CNCC2CCN(c3ncc(C(=O)NO)cn3)CC2)c2ccccc21 [quisinostat]
How it was run: as §1

tipifarnib = compound: Cn1cncc1[C@@](N)(c1ccc(Cl)cc1)c1ccc2c(c1)c(-c1cccc(Cl)c1)cc(=O)n2C [tipifarnib]
How it was run: as §1

[6] = compound: NC(=O)Nc1cc(-c2cccc(F)c2)sc1C(=O)N[C@H]1CCCNC1
How it was run: as §1

[7] = compound: NC(=O)c1cnc(N[C@@H]2CCCC[C@@H]2N)nc1Nc1cccc(-n2nccn2)c1
How it was run: as §1

[8] = compound: NC1(c2ccc(-c3nc4ccn5c(=O)[nH]nc5c4cc3-c3ccccc3)cc2)CCC1
How it was run: as §1

tozasertib = compound: Cc1cc(Nc2cc(N3CCN(C)CC3)nc(Sc3ccc(NC(=O)C4CC4)cc3)n2)n[nH]1 [tozasertib]
How it was run: as §1

| Target | log2 fold change (lapatinib) | log2 fold change (pictilisib) | log2 fold change (crizotinib) | log2 fold change [1] | log2 fold change (duvelisib) | log2 fold change (gandotinib) | log2 fold change (doramapimod) | log2 fold change (bafetinib) | log2 fold change [2] | log2 fold change (nilotinib) | log2 fold change [3] | log2 fold change (dasatinib) | log2 fold change [4] | log2 fold change [5] | log2 fold change (quisinostat) | log2 fold change (tipifarnib) | log2 fold change [6] | log2 fold change [7] | log2 fold change [8] | log2 fold change (tozasertib) |
| --- | --- | --- | --- | --- | --- | --- | --- | --- | --- | --- | --- | --- | --- | --- | --- | --- | --- | --- | --- | --- |
| ANXA2 (UniProt H0YL33) | inactive: 0.026 | inactive: -0.028 | inactive: -0.048 | inactive: 0.284 | inactive: 0.044 | inactive: -0.163 | inactive: 0.017 | inactive: 0.031 | inactive: -0.054 | inactive: -0.153 | inactive: 0.008 | inactive: -0.069 | inactive: 0.074 | inactive: 0.022 | inactive: 0.134 | inactive: 0.199 | inactive: -0.196 | inactive: -0.078 | inactive: 0.089 | – |
| AP4B1 (UniProt Q9Y6B7) | inactive: 0.064 | inactive: -0.142 | inactive: 0.025 | inactive: -0.106 | inactive: -0.058 | inactive: -0.023 | inactive: 0.019 | inactive: -0.079 | inactive: 0.135 | inactive: 0.023 | inactive: 0.011 | inactive: 0.032 | inactive: -0.013 | inactive: 0.027 | inactive: 0.018 | inactive: -0.051 | inactive: 0.1 | inactive: 0.028 | inactive: 0.007 | inactive: -0.011 |
| ALMS1 (UniProt Q8TCU4) | inactive: -0.096 | inactive: -0.095 | inactive: -0.061 | inactive: -0.037 | inactive: 0.039 | inactive: 0.047 | inactive: -0.007 | inactive: -0.048 | inactive: 0.049 | inactive: 0.01 | inactive: 0.103 | inactive: 0.013 | inactive: 0.016 | inactive: 0.063 | inactive: -0.101 | inactive: -0.029 | inactive: 0.081 | inactive: -0.094 | inactive: -0.057 | inactive: -0.052 |
| ANKRD10 (UniProt Q9NXR5) | inactive: -0.074 | inactive: 0.184 | inactive: 0.017 | inactive: -0.032 | inactive: -0.052 | inactive: -0.088 | inactive: -0.079 | inactive: -0.112 | inactive: 0.007 | inactive: -0.042 | inactive: -0.021 | inactive: -0.05 | inactive: 0.021 | inactive: 0.012 | inactive: 0.001 | inactive: -0.028 | inactive: 0.036 | inactive: 0.168 | inactive: -0.029 | – |
| ANAPC1 (UniProt Q9H1A4) | inactive: -0.017 | inactive: -0.016 | inactive: -0.045 | inactive: -0.053 | inactive: 0.005 | inactive: -0.001 | inactive: 0.021 | inactive: -0.041 | inactive: 0.07 | inactive: 0.017 | inactive: -0.016 | inactive: -0.011 | inactive: -0.016 | inactive: 0.011 | inactive: -0.028 | inactive: 0 | inactive: 0.031 | inactive: -0.002 | inactive: -0.015 | inactive: -0.008 |
| ANKRD49 (UniProt Q8WVL7) | inactive: 0 | inactive: -0.015 | inactive: -0.01 | inactive: 0.046 | inactive: 0.003 | inactive: 0.048 | inactive: 0.056 | inactive: 0.013 | inactive: 0.081 | inactive: 0.029 | inactive: -0.022 | inactive: 0.027 | inactive: -0.021 | inactive: -0.001 | inactive: -0.056 | inactive: -0.004 | inactive: 0.011 | inactive: 0.007 | inactive: 0.032 | inactive: 0.107 |
| ALDH9A1 isoform 3 (UniProt P49189) | inactive: 0.027 | inactive: 0.01 | inactive: 0.036 | inactive: 0.079 | inactive: 0.017 | inactive: -0.003 | inactive: -0.07 | inactive: 0.012 | inactive: -0.024 | inactive: 0.023 | inactive: -0.008 | inactive: -0.02 | inactive: 0.012 | inactive: -0.036 | inactive: 0.095 | inactive: 0.02 | inactive: 0.015 | inactive: -0.004 | inactive: 0.003 | inactive: -0.018 |
| ALG13 (UniProt Q9NP73) | inactive: 0.017 | inactive: -0.002 | inactive: -0.12 | inactive: -0.075 | inactive: 0 | inactive: 0.044 | inactive: -0.015 | inactive: -0.025 | inactive: 0.127 | inactive: 0.089 | inactive: -0.012 | inactive: -0.044 | inactive: 0.218 | inactive: 0 | inactive: -0.067 | inactive: -0.036 | inactive: -0.004 | inactive: 0.028 | inactive: -0.009 | inactive: -0.091 |
| ANPEP (UniProt P15144) | inactive: -0.049 | inactive: 0 | inactive: 0.019 | inactive: -0.19 | inactive: -0.035 | inactive: 0.055 | inactive: -0.044 | inactive: -0.1 | inactive: 0.078 | inactive: 0 | inactive: -0.068 | inactive: -0.019 | inactive: 0.124 | inactive: -0.029 | inactive: 0.008 | inactive: 0.116 | inactive: 0.04 | inactive: -0.009 | inactive: -0.011 | inactive: 0.068 |
| ALKBH8 isoform 4 (UniProt Q96BT7) | inactive: 0.002 | inactive: -0.012 | inactive: -0.005 | inactive: -0.097 | inactive: 0.048 | inactive: 0 | inactive: 0.017 | inactive: -0.046 | inactive: 0.072 | inactive: -0.018 | inactive: -0.061 | inactive: 0 | inactive: 0 | inactive: -0.009 | inactive: -0.048 | inactive: -0.01 | inactive: 0.049 | inactive: 0.037 | inactive: -0.088 | inactive: -0.032 |
| ANKRD54 (UniProt Q6NXT1) | inactive: 0.038 | inactive: -0.008 | inactive: 0.058 | inactive: 0.01 | inactive: 0.008 | inactive: 0.049 | inactive: 0.044 | inactive: -0.029 | inactive: -0.007 | inactive: 0.053 | inactive: -0.003 | inactive: -0.013 | inactive: 0.05 | inactive: -0.018 | inactive: -0.024 | inactive: 0.019 | inactive: -0.013 | inactive: 0 | inactive: 0.04 | inactive: -0.002 |
| ANXA13 isoform 2 (UniProt P27216) | inactive: -0.111 | inactive: -0.03 | inactive: 0.011 | inactive: 0.057 | inactive: -0.116 | active: 0.545 | inactive: 0.038 | inactive: -0.195 | inactive: 0.284 | inactive: -0.001 | inactive: 0.005 | inactive: 0.007 | inactive: -0.079 | inactive: 0.104 | inactive: -0.022 | inactive: 0.123 | inactive: 0.023 | inactive: 0.032 | inactive: 0.078 | – |
| ANXA1 (UniProt P04083) | inactive: 0.005 | inactive: 0.013 | inactive: 0.018 | inactive: -0.013 | inactive: 0.016 | inactive: -0.005 | inactive: 0.008 | inactive: 0.038 | inactive: 0.028 | inactive: -0.01 | inactive: -0.009 | inactive: -0.009 | inactive: -0.006 | inactive: -0.006 | inactive: 0.034 | inactive: 0.026 | inactive: -0.015 | inactive: 0.003 | inactive: 0.009 | inactive: 0.012 |
| ALKBH3 (UniProt Q96Q83) | inactive: -0.025 | inactive: -0.022 | inactive: 0.018 | inactive: 0.089 | inactive: 0.004 | inactive: -0.059 | inactive: -0.03 | inactive: -0.076 | inactive: -0.021 | inactive: -0.024 | inactive: 0 | inactive: 0.004 | inactive: 0.109 | inactive: 0.029 | inactive: -0.007 | inactive: -0.241 | inactive: 0.01 | inactive: -0.019 | inactive: -0.027 | inactive: 0.066 |
| ANXA11 (UniProt P50995) | inactive: -0.005 | inactive: -0.008 | inactive: 0.001 | inactive: -0.044 | inactive: -0.022 | inactive: 0.008 | inactive: 0.012 | inactive: -0.03 | inactive: 0.039 | inactive: 0.014 | inactive: -0.017 | inactive: -0.033 | inactive: -0.029 | inactive: 0.016 | inactive: 0.005 | inactive: -0.011 | inactive: -0.002 | inactive: 0.009 | inactive: 0.028 | inactive: 0.026 |
| ALG10B (UniProt Q5I7T1) | inactive: -0.014 | inactive: -0.024 | inactive: 0.053 | inactive: -0.046 | inactive: 0.014 | inactive: -0.034 | inactive: -0.055 | inactive: -0.057 | inactive: 0.175 | inactive: -0.021 | inactive: -0.093 | inactive: -0.026 | inactive: -0.001 | inactive: 0.071 | inactive: 0.001 | inactive: -0.029 | inactive: -0.028 | inactive: 0.002 | inactive: -0.012 | – |

Fetched one by one from the entries so far (2):

| Target | log2 fold change (lapatinib) | log2 fold change (pictilisib) | log2 fold change (crizotinib) | log2 fold change [1] | log2 fold change (duvelisib) | log2 fold change (gandotinib) | log2 fold change (doramapimod) | log2 fold change (bafetinib) | log2 fold change [2] | log2 fold change (nilotinib) | log2 fold change [3] | log2 fold change (dasatinib) | log2 fold change [4] | log2 fold change [5] | log2 fold change (quisinostat) | log2 fold change (tipifarnib) | log2 fold change [6] | log2 fold change [7] | log2 fold change [8] | log2 fold change (tozasertib) |
| --- | --- | --- | --- | --- | --- | --- | --- | --- | --- | --- | --- | --- | --- | --- | --- | --- | --- | --- | --- | --- |
| AP4B1 (UniProt Q9Y6B7) | inactive: 0.064 | inactive: -0.142 | inactive: 0.025 | inactive: -0.106 | inactive: -0.058 | inactive: -0.023 | inactive: 0.019 | inactive: -0.079 | inactive: 0.135 | inactive: 0.023 | inactive: 0.011 | inactive: 0.032 | inactive: -0.013 | inactive: 0.027 | inactive: 0.018 | inactive: -0.051 | inactive: 0.1 | inactive: 0.028 | inactive: 0.007 | inactive: -0.011 |
| ALG10B (UniProt Q5I7T1) | inactive: -0.014 | inactive: -0.024 | inactive: 0.053 | inactive: -0.046 | inactive: 0.014 | inactive: -0.034 | inactive: -0.055 | inactive: -0.057 | inactive: 0.175 | inactive: -0.021 | inactive: -0.093 | inactive: -0.026 | inactive: -0.001 | inactive: 0.071 | inactive: 0.001 | inactive: -0.029 | inactive: -0.028 | inactive: 0.002 | inactive: -0.012 | – |

From the supplement of paper PMC10849652
